The record followed here is article PMC3368841.

Results are given in words; binding and its absence hold for the method and conditions named. In cells and extracts the contact can be indirect. Some binding calls cover weakened binding; strength is not graded here.

For this assay, the target named is T1, keratin 18 (K18) (human (endogenous in HCT116)) (UniProt P05783).
T1 sequence: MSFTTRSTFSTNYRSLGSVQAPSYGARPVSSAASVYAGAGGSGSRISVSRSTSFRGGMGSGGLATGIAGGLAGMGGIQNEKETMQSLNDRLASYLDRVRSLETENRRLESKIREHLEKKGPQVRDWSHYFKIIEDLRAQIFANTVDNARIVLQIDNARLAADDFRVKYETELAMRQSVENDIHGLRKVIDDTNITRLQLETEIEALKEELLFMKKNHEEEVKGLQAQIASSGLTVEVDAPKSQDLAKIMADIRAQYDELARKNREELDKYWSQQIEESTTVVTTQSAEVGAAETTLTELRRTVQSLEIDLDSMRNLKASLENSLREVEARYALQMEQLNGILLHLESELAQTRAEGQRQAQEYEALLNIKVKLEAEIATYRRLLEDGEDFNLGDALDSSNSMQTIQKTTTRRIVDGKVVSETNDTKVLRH
Put plainly: co-IP; HCT116 cells lysed in EBC buffer (50 mM Tris HCl pH 8.0, 125 mM NaCl, 0.5% NP40); lysates immunoprecipitated with anti-K18 antibody or control IgG; washed 3 times with NET-N buffer; Western blots for PKP3 and K18.

B1: plakophilin3 (PKP3) (protein, UniProt Q9Y446 1-797)
chain: MQDGNFLLSALQPEAGVCSLALPSDLQLDRRGAEGPEAERLRAARVQEQVRARLLQLGQQPRHNGAAEPEPEAETARGTSRGQYHTLQAGFSSRSQGLSGDKTSGFRPIAKPAYSPASWSSRSAVDLSCSRRLSSAHNGGSAFGAAGYGGAQPTPPMPTRPVSFHERGGVGSRADYDTLSLRSLRLGPGGLDDRYSLVSEQLEPAATSTYRAFAYERQASSSSSRAGGLDWPEATEVSPSRTIRAPAVRTLQRFQSSHRSRGVGGAVPGAVLEPVARAPSVRSLSLSLADSGHLPDVHGFNSYGSHRTLQRLSSGFDDIDLPSAVKYLMASDPNLQVLGAAYIQHKCYSDAAAKKQARSLQAVPRLVKLFNHANQEVQRHATGAMRNLIYDNADNKLALVEENGIFELLRTLREQDDELRKNVTGILWNLSSSDHLKDRLARDTLEQLTDLVLSPLSGAGGPPLIQQNASEAEIFYNATGFLRNLSSASQATRQKMRECHGLVDALVTSINHALDAGKCEDKSVENAVCVLRNLSYRLYDEMPPSALQRLEGRGRRDLAGAPPGEVVGCFTPQSRRLRELPLAADALTFAEVSKDPKGLEWLWSPQIVGLYNRLLQRCELNRHTTEAAAGALQNITAGDRRWAGVLSRLALEQERILNPLLDRVRTADHHQLRSLTGLIRNLSRNARNKDEMSTKVVSHLIEKLPGSVGEKSPPAEVLVNIIAVLNNLVVASPIAARDLLYFDGLRKLIFIKKKRDSPDSEKSSRAASSLLANLWQYNKLHRDFRAKGYRKEDFLGP
With B1, the binding result is recorded as “binds”.
